From PMC12661054, “The CIP2A-TOPBP1 axis facilitates mitotic DNA repair via MiDAS and MMEJ” (Nature Communications, 2025)
Results are given in words; binding and its absence hold for the method and conditions named. Binding seen in cells or lysates may run through a third protein. Here binding means that the protein was enriched with, or labelled near, the bait; the list need not be complete.

Protein sequences, listed by entry. Tags and fused reporters are not part of them.
UniProt Q92547: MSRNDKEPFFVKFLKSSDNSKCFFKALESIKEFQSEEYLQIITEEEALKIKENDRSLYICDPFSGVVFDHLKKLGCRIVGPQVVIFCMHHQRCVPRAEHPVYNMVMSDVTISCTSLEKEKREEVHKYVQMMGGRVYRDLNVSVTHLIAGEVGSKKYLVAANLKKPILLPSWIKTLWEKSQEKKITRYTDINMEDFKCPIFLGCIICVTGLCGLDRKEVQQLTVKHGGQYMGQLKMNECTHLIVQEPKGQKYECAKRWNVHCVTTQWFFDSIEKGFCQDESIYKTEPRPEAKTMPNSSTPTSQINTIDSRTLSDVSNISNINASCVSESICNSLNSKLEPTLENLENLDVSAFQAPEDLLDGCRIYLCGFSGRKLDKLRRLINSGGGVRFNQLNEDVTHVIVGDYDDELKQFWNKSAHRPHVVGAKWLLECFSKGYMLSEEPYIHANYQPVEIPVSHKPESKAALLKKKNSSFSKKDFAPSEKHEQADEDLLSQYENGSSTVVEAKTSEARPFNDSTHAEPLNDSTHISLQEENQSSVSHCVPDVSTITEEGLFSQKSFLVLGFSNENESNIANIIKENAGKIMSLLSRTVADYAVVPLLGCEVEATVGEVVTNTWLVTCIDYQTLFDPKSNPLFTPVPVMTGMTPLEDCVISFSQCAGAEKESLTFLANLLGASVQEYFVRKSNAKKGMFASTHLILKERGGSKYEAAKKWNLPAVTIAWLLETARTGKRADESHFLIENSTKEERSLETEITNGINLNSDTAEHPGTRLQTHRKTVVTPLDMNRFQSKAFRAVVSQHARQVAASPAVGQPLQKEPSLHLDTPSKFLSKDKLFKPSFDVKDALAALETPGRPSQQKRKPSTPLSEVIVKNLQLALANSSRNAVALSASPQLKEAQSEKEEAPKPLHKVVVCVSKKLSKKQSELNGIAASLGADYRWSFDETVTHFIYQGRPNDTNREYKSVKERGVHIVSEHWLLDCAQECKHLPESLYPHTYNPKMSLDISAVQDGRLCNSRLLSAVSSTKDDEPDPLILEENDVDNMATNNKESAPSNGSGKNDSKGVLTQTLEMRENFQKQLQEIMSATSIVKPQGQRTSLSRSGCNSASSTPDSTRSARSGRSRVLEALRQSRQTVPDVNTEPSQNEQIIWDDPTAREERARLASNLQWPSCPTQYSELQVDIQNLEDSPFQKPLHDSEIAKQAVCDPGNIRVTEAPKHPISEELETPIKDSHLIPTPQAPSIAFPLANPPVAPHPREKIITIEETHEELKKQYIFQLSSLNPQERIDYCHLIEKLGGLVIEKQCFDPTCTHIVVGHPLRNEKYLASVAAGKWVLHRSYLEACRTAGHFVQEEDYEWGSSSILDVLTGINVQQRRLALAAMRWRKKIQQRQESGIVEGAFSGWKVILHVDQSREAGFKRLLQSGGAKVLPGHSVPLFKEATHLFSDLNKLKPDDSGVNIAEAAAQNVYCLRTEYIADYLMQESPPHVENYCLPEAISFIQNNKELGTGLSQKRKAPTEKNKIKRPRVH
UniProt Q8IY92: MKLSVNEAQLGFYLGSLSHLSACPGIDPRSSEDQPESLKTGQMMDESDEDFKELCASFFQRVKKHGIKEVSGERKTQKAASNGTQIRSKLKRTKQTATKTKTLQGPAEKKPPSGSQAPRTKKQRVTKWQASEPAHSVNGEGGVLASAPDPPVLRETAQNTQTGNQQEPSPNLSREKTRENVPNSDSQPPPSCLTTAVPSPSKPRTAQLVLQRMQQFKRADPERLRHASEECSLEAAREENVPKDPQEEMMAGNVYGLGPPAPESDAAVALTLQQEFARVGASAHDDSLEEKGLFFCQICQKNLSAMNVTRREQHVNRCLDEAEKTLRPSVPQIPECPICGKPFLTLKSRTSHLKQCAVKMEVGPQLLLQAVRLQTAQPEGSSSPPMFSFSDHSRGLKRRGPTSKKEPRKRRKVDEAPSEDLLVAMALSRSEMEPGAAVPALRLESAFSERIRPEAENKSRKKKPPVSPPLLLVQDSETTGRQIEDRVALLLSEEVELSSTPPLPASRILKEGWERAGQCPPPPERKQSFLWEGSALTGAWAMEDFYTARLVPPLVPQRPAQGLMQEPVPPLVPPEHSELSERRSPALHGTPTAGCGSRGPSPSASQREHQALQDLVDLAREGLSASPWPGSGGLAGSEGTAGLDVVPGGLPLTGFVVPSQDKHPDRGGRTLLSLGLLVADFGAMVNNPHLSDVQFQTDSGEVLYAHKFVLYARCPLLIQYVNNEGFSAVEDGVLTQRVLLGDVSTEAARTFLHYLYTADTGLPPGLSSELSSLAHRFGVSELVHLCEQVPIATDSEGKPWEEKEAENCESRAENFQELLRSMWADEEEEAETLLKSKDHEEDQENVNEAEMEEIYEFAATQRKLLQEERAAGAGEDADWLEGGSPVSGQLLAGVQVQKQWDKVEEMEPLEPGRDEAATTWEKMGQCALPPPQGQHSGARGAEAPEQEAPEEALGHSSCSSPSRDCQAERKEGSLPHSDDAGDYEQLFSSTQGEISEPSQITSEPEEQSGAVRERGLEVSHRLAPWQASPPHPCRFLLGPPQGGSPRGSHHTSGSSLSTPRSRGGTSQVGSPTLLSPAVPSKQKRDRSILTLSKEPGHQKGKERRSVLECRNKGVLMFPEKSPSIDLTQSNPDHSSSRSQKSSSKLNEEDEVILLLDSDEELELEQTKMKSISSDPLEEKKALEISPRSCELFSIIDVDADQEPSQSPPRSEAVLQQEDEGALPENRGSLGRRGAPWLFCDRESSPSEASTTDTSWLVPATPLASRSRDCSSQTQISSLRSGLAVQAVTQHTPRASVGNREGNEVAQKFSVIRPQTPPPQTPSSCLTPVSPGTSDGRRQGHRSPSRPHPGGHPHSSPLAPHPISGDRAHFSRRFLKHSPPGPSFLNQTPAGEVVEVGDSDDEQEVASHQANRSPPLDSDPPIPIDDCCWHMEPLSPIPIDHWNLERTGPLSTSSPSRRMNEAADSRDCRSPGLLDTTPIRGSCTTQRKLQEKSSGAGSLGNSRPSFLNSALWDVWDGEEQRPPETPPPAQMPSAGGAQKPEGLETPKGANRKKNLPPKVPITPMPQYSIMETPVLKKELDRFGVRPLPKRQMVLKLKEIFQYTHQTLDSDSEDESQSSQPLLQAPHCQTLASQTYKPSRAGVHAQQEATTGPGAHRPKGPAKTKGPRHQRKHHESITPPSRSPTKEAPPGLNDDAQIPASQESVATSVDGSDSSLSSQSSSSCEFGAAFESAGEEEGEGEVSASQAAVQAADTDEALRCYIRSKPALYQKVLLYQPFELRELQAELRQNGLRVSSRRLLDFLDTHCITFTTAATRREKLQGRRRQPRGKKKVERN
UniProt Q5VYV7: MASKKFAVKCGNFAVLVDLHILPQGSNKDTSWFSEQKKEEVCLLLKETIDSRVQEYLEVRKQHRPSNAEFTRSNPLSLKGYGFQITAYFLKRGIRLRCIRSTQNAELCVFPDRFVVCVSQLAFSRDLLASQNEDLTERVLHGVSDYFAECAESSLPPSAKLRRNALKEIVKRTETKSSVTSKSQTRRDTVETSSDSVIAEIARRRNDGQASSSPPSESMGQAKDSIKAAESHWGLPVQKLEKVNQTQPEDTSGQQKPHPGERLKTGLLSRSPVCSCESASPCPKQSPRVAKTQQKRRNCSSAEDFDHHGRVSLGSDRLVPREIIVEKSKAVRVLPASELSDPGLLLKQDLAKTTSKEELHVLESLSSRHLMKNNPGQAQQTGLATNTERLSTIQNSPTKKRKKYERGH

Columns and labels:
[1] = target: TOPBP1 (endogenous) (human (endogenous in HEK293TN)) (UniProt Q92547); experiment: affinity purification with mass spectrometry; endogenous TOPBP1 Co-IPs from asynchronous and M phase synchronised HEK293TN cells; TMT isobaric labelling, quantitative LC-MS
[2] = target: TOPBP1 (endogenous) (human (endogenous in HEK293TN)) (UniProt Q92547); experiment: affinity purification with mass spectrometry; endogenous TOPBP1 precipitated with anti-TOPBP1 (A300-111A) on Dynabeads protein G from benzonase-treated HEK293TN lysates (asynchronous, S phase, M phase); IgG beads as control; label-free DIA LC-MS

Substance | binding [1] | binding [2]
SLX4 (endogenous) (from UniProt Q8IY92 1-1834) | binds | binds
SLX4IP (endogenous) (from UniProt Q5VYV7 1-408) | binds | –
